Reference: US10857167B2, “Use of oligosaccharide compositions to enhance weight gain” (Children's Hospital Medical Center, priority 2015, dated 2020)
This continues a long series; more values of the same kind are listed elsewhere.

Tested on: distal small bowel gene expression
Assay: RNA sequencing / transcriptional analysis of small bowel 56 days after ICR (2′-FL signature response)
Assay type: in vivo, mouse
Source text: Luminal small bowel contents were expressed into AllProtect Tissue Reagent (Qiagen Inc, CA). Bacterial DNA was extracted using the AllPrep DNA/RNA Mini Kit (Qiagen Inc, CA), according to kit instructions and prior to sequencing (described below). Small bowel tissue samples for RNA were placed into RNA Later (Life Technologies, NY). RNA extraction was accomplished following Qiagen RNeasy Plus Kit instruction (Qiagen Inc, CA). All nucleic acid samples were then stored at -80 Celsius until sequenced (described below). Transcriptional analysis was carried out on resected and harvested small bowel samples obtained from operated mice taken to 8 weeks. Murine RNA sequencing libraries were prepared from approximately 1.5 μg RNA using the TruSeq RNA Sample Preparation Kit (Illumina, Calif.) and sequenced using the HiSeq 2000 Sequencing System (Illumina, Calif.) with single-end 50 bp reads. Following removal of primers and barcodes, sequences were aligned to the mm10 genome using reference annotations from UCSC (Rosenbloom et al. (2015) Nucleic acids research 43: […]-681) (n=36,186 entities). Aligned reads were quantified and used to compute reads per kilobase per million mapped reads (RPKM); raw counts were then normalized using the DESeq algorithm and each harvested sample was baselined to its own resected sample. A filter was applied to the data, requiring at least three reads in all samples of at least one of the four experimental conditions (n=14,489 entities). The data discussed in this publication have been deposited in NCBI's Gene Expression Omnibus and are accessible through NCBI Gene Expression Omnibus (GEO) Series accession number GSE72590. Edgar et al. (2002) Nucleic acids research 30: 207-210. In order to characterize the impact of 2'-FL supplementation while accounting for the effect of ileoecal resection, a t-test was applied between resected and harvested samples within control and experimental animals. Significance was set at a p-value of ≤0.05 and a fold change of 3, which generated 2,576 differentially regulated entities across two comparisons. Gene set unions and intersections of the control and experimental gene sets were identified through Venn diagrams. From the master list, the gene list specific to animals supplemented with 2'-FL were removed in order to identify genes differentially regulated only by ICR (n=546 entities); this gene set characterizes the adaptive response. Further, the 2'-FL response (n=2,030 entities) was identified by removing the adaptive response signature described above from the master list, leaving only genes regulated by 2'-FL supplementation after ICR which were not found in the non-supplemented adaptive response. Heatmaps were generated using hierarchical clustering with the Pearson's Centered distance metric and the average linkage rule; both entities and samples were clustered. All genomic analyses described above were performed in Strand NGS (Strand Life Sciences, CA). Gene list functional enrichment was initially discovered using ToppFun, a member of the ToppGene Suite. Chen et al. (2009) Nucleic acids research 37: […]-311. No statistical correction was selected. Gene lists were further analyzed using ClueGO, a plugin for Cytoscape designed to decipher functionally grouped gene ontology and pathway annotation networks. Bindea et al. (2009) Bioinformatics 25: 1091-1093. At the time of data analysis, the annotation files were updated from sources to Jan. 1, 2015. “GO Term Fusion” was enabled to manage ontologic term redundancy and network specificity was set to medium. Results were restricted to pathways with p≤0.05 using Benjamini-Hochberg correction and Kappa scoring was set to 0.4. Biocyc annotations were assigned a rectangle, gene ontology biologic processes were assigned an ellipse, and […] annotations were assigned a diamond shape. No meaning was assigned to size or color. […]

**Q.** What does the source list for `C[C@@H]1O[C@@H](O[C@H]2[C@H](O[C@H]3[C@H](O)[C@@H](O)C(O)O[C@@H]3CO)O[C@H](CO)[C@H](O)[C@@H]2O)[C@@H](O)[C@H](O)[C@@H]1O` (stereo partly drawn) [2′-FL, 2′-fucosyllactose]?
**A.** Fold Change (Pre- to Post-op) (gene Col13a1): −5.478; Fold Change (Pre- to Post-op) (gene Col15a1): −3.722; Fold Change (Pre- to Post-op) (gene Col23a1): −5.39; Fold Change (Pre- to Post-op) (gene Col28a1): −3.203; Fold Change (Pre- to Post-op) (gene Colq): −5.085; Fold Change (Pre- to Post-op) (gene Commd3): 3.032; Fold Change (Pre- to Post-op) (gene Copa): −3.081; Fold Change (Pre- to Post-op) (gene Coro2b): −8.663; Fold Change (Pre- to Post-op) (gene Cp): −3.369; Fold Change (Pre- to Post-op) (gene Cpeb4): −7.155; Fold Change (Pre- to Post-op) (gene Cped1): −3.329; Fold Change (Pre- to Post-op) (gene Cplx1): −5.116; Fold Change (Pre- to Post-op) (gene Cpm): −4.795; Fold Change (Pre- to Post-op) (gene Cpne4): −4.107; Fold Change (Pre- to Post-op) (gene Cpt1a): −3.075; Fold Change (Pre- to Post-op) (gene Cramp1l): −3.07; Fold Change (Pre- to Post-op) (gene Creb3l1): −5.494; Fold Change (Pre- to Post-op) (gene Creb3l2): −3.832; Fold Change (Pre- to Post-op) (gene Crebbp): −7.823; Fold Change (Pre- to Post-op) (gene Crispld2): −3.162; Fold Change (Pre- to Post-op) (gene Crtc3): −5.019; Fold Change (Pre- to Post-op) (gene Csf1): −3.627; Fold Change (Pre- to Post-op) (gene Csf1r): −6.703; Fold Change (Pre- to Post-op) (gene Csf2rb2): −4.41; Fold Change (Pre- to Post-op) (gene Cspg4): −3.052; Fold Change (Pre- to Post-op) (gene Ctc1): −3.669; Fold Change (Pre- to Post-op) (gene Ctif): −4.689; Fold Change (Pre- to Post-op) (gene Ctnnd1): −3.227; Fold Change (Pre- to Post-op) (gene Ctnnd2): −3.844; Fold Change (Pre- to Post-op) (gene Cul7): −5.784; Fold Change (Pre- to Post-op) (gene Cul9): −3.897; Fold Change (Pre- to Post-op) (gene Cux2): −3.623; Fold Change (Pre- to Post-op) (gene Cyfip2): −7.683; Fold Change (Pre- to Post-op) (gene Cyp2e1): −6.806; Fold Change (Pre- to Post-op) (gene Cyyr1): −3.918; Fold Change (Pre- to Post-op) (gene D8Ertd82e): −5.422; Fold Change (Pre- to Post-op) (gene D10Bwg1379e): −5.781; Fold Change (Pre- to Post-op) (gene D430019H16Rik): −4.877; Fold Change (Pre- to Post-op) (gene D630003M21Rik): −3.987; Fold Change (Pre- to Post-op) (gene D930015E06Rik): −5.945; Fold Change (Pre- to Post-op) (gene Daam2): −6.254; Fold Change (Pre- to Post-op) (gene Dab2ip): −3.611; Fold Change (Pre- to Post-op) (gene Dag1): −4.424; Fold Change (Pre- to Post-op) (gene Dapk1): −3.851; Fold Change (Pre- to Post-op) (gene Darc): −3.371; Fold Change (Pre- to Post-op) (gene Dbh): −6.587; Fold Change (Pre- to Post-op) (gene Dchs1): −7.422; Fold Change (Pre- to Post-op) (gene Dclk1): −3.24; Fold Change (Pre- to Post-op) (gene Ddr2): −3.873; Fold Change (Pre- to Post-op) (gene Dennd1a): −3.174; Fold Change (Pre- to Post-op) (gene Dennd1c): −3.312; Fold Change (Pre- to Post-op) (gene Dhdh): −3.285; Fold Change (Pre- to Post-op) (gene Dhx8): −3.474; Fold Change (Pre- to Post-op) (gene Dhx9): −6.337; Fold Change (Pre- to Post-op) (gene Dhx34): −3.353; Fold Change (Pre- to Post-op) (gene Dip2c): −3.396; Fold Change (Pre- to Post-op) (gene Disp2): −4.889; Fold Change (Pre- to Post-op) (gene Dlc1): −5.546; Fold Change (Pre- to Post-op) (gene Dlg5): −3.613; Fold Change (Pre- to Post-op) (gene Dlgap3): −3.499; Fold Change (Pre- to Post-op) (gene Dmp1): −3.697; Fold Change (Pre- to Post-op) (gene Dmtn): −3.126; Fold Change (Pre- to Post-op) (gene Dmwd): −4.25; Fold Change (Pre- to Post-op) (gene Dnah8): −4.012; Fold Change (Pre- to Post-op) (gene Dnajc16): −4.169; Fold Change (Pre- to Post-op) (gene Dnase1l3): −4.068; Fold Change (Pre- to Post-op) (gene Dnm2): −3.376; Fold Change (Pre- to Post-op) (gene Dnmbp): −6.6; Fold Change (Pre- to Post-op) (gene Dnmt3a): −4.121; Fold Change (Pre- to Post-op) (gene Dock1): −3.181; Fold Change (Pre- to Post-op) (gene Dock2): −4.983; Fold Change (Pre- to Post-op) (gene Dock5): −3.284; Fold Change (Pre- to Post-op) (gene Dopey2): −3.474; Fold Change (Pre- to Post-op) (gene Dot1l): −4.032; Fold Change (Pre- to Post-op) (gene Dpp6): −8.042; Fold Change (Pre- to Post-op) (gene Dpp9): −3.033; Fold Change (Pre- to Post-op) (gene Dpysl3): −6.419; Fold Change (Pre- to Post-op) (gene Drosha): −4.216; Fold Change (Pre- to Post-op) (gene Dsp): −3.496; Fold Change (Pre- to Post-op) (gene Dst): −3.608; Fold Change (Pre- to Post-op) (gene Dtx1): −5.117; Fold Change (Pre- to Post-op) (gene Duox1): −4.169; Fold Change (Pre- to Post-op) (gene Dusp2): −4.787; Fold Change (Pre- to Post-op) (gene Dvl3): −4.445; Fold Change (Pre- to Post-op) (gene Dysf): −4.139; Fold Change (Pre- to Post-op) (gene Dzip1): −3.169; Fold Change (Pre- to Post-op) (gene Ebf3): −5.085; Fold Change (Pre- to Post-op) (gene Ece1): −4.106; Fold Change (Pre- to Post-op) (gene Eef2k): −3.648; Fold Change (Pre- to Post-op) (gene Efna5): −3.069; Fold Change (Pre- to Post-op) (gene Ehd3): −3.327; Fold Change (Pre- to Post-op) (gene Eif4ebp2): −3.825; Fold Change (Pre- to Post-op) (gene Eif4g1): −3.375; Fold Change (Pre- to Post-op) (gene Elac2): −3.024; Fold Change (Pre- to Post-op) (gene Elavl3): −4.902; Fold Change (Pre- to Post-op) (gene Elavl4): −7.496; Fold Change (Pre- to Post-op) (gene Elf4): −3.981; Fold Change (Pre- to Post-op) (gene Elk3): −3.185; Fold Change (Pre- to Post-op) (gene Elmsan1): −3.82; Fold Change (Pre- to Post-op) (gene Emilin1): −3.789; Fold Change (Pre- to Post-op) (gene Eml2): −3.933; Fold Change (Pre- to Post-op) (gene Eml6): −4.171; Fold Change (Pre- to Post-op) (gene Eng): −3.419; Fold Change (Pre- to Post-op) (gene Enpp6): −3.441; Fold Change (Pre- to Post-op) (gene Epas1): −4.457; Fold Change (Pre- to Post-op) (gene Epb4.1l3): −4.333; Fold Change (Pre- to Post-op) (gene Ephb2): −3.149; Fold Change (Pre- to Post-op) (gene Eppk1): −3.024; Fold Change (Pre- to Post-op) (gene Erbb3): −7.3; Fold Change (Pre- to Post-op) (gene Erc1): −3.129; Fold Change (Pre- to Post-op) (gene Ercc2): −3.182; Fold Change (Pre- to Post-op) (gene Ern1): −3.525; Fold Change (Pre- to Post-op) (gene Ern2): −4.086; Fold Change (Pre- to Post-op) (gene Esrp2): −3.224; Fold Change (Pre- to Post-op) (gene Esyt1): −4.748; Fold Change (Pre- to Post-op) (gene Etl4): −3.372; Fold Change (Pre- to Post-op) (gene Ets1): −3.789; Fold Change (Pre- to Post-op) (gene Extl3): −3.308; Fold Change (Pre- to Post-op) (gene Eya1): −3.606; Fold Change (Pre- to Post-op) (gene F830016B08Rik): −4.1309
